Tested on: Pan T cells
Experiment: CSR surface expression and cellular activation (FSC-A, CD69), flow cytometry
Format: cell-based, human
Settings: 10 μg mRNA electroporation, two days later

B1: CD2z CSR: chimeric stimulatory receptor: wild type CD2 and CD3z intracellular stimulation domain, SEQ ID NO: 17912 (protein)
chain: MSFPCKFVASFLLIFNVSSKGAVSKEITNALETWGALGQDINLDIPSFQMSDDIDDIKWEKTSDKKKIAQFRKEKETFKEKDTYKLFKNGTLKIKHLKTDDQDIYKVSIYDTKGKNVLEKIFDLKIQERVSKPKISWTCINTTLTCEVMNGTDPELNLYQDGKHLKLSQRVITHKWTTSLSAKFKCTAGNKVSKESSVEPVSCPEKGLDIYLIIGICGGGSLLMVFVALLVFYITKRKKQRSRRNDEELETRAHRVATEERGRKPHQIPASTPQNPATSQHPPPPPGHRSQAPSHRPPPPGHRVQHQPQKRPPAPSGTQVHQQKGPPLPRPRVQPKPPHGAAENSLSPSSNRVKFSRSADAPAYKQGQNQLYNELNLGRREEYDVLDKRRGRDPEMGGKPRRKNPQEGLYNELQKDKMAEAYSEIGMKGERRRGKGHDGLYQGLSTATKDTYDALHMQALPPR
surface expression of CSR: Increased surface expression

Reference: patent publication US20210107993A1, “CARTYRIN COMPOSITIONS AND METHODS FOR USE” (Poseida Therapeutics, Inc., priority 2018, published 2021)
